This is one part of the list. Residues, ends and D or L forms follow the SMILES beside them. *: point of attachment. Cbz = O=C(OCc1ccccc1)*
Columns and labels:
Assay in all cases: log2 fold change, soluble protein after heating vs DMSO (PISA); higher = thermal stabilisation; K562 cells, 10 uM, 30 min; active = over 0.2 and 3.5 SD of the protein, either way, in both replicates (recomputed)
erlotinib = compound: C#Cc1cccc(Nc2ncnc3cc(OCCOC)c(OCCOC)cc23)c1 [erlotinib]
Method in brief: (§1)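 K562 cells at 2×10^6 cells/mL were treated for 30 min with 10 μM compound, and aliquots were heated for 3 min over 48°C-58°C before pooling. Extraction used PBS with 0.5% NP-40 at 4°C, and soluble protein was the supernatant after 21,000xg for 90 min, measured by TMTpro 16plex LC-MS/MS with channel sums equalised. Thermal stability values, relative to control samples and from duplicates, are log2 fold changes.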

Chains of the proteins cited; added tags and fusions are not shown. Lines headed by an entry give the natural chain unless they say otherwise; changes in a name come on top.
UniProt Q9UNK0: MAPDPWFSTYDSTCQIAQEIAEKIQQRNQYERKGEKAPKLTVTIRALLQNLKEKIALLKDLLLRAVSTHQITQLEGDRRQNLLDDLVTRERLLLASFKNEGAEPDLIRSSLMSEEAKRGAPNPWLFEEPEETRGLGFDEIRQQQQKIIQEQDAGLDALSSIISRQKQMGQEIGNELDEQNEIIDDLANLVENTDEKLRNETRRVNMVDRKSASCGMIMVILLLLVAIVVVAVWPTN
UniProt P55854, whole entry, looked up: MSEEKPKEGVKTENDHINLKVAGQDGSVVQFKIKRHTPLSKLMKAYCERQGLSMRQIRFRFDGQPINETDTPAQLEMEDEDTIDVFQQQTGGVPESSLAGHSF
UniProt A2RTX5: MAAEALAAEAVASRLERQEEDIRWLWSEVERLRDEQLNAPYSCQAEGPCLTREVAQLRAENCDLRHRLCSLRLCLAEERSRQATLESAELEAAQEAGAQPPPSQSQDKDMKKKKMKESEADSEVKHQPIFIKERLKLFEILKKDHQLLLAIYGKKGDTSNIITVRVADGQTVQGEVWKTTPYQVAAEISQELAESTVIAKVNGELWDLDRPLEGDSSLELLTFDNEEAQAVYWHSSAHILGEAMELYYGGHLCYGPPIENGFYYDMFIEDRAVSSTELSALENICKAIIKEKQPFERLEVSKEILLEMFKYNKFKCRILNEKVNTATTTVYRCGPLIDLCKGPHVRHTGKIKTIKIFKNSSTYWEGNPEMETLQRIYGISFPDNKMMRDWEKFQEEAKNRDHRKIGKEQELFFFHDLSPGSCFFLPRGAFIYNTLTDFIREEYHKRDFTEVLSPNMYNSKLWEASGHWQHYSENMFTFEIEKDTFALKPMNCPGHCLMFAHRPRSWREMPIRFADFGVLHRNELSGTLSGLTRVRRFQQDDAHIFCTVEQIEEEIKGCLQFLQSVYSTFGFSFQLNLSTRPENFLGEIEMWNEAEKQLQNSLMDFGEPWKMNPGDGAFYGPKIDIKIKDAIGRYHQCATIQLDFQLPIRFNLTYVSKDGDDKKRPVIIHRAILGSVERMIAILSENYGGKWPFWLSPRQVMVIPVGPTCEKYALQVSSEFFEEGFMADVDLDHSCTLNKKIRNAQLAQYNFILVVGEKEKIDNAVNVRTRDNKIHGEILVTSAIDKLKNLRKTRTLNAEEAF
UniProt P61764, whole entry, looked up: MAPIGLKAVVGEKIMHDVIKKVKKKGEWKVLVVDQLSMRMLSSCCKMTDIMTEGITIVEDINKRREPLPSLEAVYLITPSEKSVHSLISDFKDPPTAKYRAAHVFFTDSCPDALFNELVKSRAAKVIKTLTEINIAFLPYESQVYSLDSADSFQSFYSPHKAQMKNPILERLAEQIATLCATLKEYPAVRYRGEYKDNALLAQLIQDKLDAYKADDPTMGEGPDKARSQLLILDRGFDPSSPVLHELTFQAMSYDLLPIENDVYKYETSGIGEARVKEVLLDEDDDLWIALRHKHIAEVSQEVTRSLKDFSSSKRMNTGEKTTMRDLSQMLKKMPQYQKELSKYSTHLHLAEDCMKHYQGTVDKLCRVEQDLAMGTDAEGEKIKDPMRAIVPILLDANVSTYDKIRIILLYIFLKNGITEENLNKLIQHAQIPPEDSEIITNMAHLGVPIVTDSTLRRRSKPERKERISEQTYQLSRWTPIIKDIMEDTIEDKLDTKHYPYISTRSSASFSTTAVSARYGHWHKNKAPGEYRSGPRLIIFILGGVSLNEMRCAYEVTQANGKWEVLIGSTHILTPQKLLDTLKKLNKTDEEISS
UniProt O14662: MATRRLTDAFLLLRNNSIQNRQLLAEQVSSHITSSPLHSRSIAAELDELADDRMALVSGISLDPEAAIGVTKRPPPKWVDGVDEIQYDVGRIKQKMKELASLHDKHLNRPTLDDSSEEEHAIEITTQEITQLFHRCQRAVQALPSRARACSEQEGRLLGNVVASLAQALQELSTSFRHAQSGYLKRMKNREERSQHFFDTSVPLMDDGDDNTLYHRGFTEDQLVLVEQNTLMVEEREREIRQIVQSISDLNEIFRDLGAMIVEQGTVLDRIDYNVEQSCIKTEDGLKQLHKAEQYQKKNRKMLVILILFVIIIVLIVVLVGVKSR
UniProt O75683: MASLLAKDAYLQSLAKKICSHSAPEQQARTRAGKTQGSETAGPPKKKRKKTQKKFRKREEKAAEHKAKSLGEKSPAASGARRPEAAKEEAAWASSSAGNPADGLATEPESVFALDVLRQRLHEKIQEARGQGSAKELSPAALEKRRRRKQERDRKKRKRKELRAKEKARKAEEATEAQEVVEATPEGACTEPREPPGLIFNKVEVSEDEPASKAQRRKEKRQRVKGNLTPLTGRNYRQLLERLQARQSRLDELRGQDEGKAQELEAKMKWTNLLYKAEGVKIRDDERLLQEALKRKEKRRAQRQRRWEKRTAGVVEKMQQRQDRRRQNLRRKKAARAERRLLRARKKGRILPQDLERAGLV
UniProt Q9UH65: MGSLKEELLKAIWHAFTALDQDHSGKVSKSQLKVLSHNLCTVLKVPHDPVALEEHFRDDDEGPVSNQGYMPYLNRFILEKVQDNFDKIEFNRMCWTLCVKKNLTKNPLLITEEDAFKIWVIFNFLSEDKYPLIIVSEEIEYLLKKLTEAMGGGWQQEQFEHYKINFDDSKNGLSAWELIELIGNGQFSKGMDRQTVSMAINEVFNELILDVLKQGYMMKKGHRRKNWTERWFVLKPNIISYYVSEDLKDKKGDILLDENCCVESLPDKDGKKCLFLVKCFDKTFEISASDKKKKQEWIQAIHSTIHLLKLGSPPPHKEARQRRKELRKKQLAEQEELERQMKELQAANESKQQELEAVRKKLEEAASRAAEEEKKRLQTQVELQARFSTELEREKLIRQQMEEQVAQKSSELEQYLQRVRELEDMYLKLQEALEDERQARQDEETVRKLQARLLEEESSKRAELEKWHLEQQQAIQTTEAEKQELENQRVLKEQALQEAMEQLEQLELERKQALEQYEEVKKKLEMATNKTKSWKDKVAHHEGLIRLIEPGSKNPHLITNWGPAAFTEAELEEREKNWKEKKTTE
UniProt Q86Y82: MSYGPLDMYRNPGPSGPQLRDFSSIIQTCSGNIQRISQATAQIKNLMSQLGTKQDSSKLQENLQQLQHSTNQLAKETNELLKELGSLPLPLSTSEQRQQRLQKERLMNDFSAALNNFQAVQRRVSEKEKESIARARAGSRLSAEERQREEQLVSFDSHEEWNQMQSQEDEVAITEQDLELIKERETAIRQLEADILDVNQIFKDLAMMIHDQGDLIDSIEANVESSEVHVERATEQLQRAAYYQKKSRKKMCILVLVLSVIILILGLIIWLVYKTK
UniProt O60506: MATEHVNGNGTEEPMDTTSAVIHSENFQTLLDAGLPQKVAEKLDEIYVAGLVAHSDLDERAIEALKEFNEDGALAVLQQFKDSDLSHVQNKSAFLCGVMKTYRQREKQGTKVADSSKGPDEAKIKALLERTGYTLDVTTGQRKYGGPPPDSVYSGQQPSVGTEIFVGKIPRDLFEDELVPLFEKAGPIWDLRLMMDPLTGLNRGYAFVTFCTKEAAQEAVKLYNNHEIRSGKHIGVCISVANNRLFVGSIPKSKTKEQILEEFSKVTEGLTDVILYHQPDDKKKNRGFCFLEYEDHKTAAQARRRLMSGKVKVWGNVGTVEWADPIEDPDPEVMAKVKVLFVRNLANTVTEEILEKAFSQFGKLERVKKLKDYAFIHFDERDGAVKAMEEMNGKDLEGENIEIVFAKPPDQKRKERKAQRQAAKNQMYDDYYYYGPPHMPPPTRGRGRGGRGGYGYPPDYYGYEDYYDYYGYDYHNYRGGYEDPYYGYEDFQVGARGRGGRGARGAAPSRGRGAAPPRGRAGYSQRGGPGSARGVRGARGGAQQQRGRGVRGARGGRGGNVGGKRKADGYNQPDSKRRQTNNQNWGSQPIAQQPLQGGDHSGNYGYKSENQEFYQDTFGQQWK
UniProt P17542, whole entry, looked up: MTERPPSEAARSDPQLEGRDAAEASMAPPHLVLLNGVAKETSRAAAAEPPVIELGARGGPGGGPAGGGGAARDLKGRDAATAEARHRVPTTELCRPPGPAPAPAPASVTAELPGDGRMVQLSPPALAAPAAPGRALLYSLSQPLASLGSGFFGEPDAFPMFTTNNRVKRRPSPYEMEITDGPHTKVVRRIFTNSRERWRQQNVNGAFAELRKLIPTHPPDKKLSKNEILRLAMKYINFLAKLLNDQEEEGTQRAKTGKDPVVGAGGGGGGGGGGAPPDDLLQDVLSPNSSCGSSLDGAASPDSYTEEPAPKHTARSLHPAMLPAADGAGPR
UniProt O43426, whole entry, looked up: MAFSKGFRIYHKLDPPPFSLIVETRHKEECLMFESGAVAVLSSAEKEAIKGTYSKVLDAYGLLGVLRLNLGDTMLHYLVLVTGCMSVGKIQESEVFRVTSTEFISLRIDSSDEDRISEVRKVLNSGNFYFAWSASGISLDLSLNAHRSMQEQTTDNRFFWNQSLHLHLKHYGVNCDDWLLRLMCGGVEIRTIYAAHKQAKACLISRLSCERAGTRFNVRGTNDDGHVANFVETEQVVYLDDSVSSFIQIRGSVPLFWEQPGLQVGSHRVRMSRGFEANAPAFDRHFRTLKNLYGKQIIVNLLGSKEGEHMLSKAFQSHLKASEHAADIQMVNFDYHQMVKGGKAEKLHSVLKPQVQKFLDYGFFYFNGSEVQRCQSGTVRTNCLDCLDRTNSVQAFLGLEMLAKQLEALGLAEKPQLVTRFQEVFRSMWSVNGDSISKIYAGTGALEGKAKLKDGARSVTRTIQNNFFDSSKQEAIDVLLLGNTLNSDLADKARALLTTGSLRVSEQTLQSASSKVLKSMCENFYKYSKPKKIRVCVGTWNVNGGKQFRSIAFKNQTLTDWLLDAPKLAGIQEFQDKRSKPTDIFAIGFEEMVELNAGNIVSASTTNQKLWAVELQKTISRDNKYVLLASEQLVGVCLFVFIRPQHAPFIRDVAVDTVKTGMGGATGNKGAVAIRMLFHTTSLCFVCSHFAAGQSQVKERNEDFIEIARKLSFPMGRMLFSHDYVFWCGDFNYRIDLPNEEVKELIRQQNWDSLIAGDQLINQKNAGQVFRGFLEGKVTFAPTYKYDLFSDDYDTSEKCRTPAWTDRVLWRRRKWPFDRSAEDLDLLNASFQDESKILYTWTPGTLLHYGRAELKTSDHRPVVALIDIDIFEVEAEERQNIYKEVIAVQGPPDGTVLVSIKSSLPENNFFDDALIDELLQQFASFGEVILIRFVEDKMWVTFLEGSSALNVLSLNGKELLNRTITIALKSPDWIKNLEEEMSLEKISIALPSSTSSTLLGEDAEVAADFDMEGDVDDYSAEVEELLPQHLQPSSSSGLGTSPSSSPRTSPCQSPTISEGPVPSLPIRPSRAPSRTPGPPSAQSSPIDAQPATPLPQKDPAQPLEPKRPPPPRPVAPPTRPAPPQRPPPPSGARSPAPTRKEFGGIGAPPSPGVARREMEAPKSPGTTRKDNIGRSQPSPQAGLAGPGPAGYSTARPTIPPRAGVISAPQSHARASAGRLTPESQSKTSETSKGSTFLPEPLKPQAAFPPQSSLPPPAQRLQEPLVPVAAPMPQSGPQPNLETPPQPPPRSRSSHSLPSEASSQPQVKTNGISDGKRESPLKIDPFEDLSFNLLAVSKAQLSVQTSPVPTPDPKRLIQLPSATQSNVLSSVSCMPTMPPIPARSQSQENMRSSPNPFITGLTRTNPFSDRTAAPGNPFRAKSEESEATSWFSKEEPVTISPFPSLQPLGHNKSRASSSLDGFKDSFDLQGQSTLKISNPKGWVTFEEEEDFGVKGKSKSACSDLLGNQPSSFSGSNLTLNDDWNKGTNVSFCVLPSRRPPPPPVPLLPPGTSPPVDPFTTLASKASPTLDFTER
UniProt Q9UJZ1: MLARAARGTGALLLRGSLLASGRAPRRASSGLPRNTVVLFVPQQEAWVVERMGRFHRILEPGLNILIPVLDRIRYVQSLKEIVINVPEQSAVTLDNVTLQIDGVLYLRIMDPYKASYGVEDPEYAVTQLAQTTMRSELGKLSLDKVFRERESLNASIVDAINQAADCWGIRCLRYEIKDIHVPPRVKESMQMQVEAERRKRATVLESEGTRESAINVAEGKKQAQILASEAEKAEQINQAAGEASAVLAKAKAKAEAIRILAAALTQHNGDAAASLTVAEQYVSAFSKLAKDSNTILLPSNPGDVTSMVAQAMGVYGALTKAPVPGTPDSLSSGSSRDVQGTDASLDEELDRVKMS
UniProt P0DMM9: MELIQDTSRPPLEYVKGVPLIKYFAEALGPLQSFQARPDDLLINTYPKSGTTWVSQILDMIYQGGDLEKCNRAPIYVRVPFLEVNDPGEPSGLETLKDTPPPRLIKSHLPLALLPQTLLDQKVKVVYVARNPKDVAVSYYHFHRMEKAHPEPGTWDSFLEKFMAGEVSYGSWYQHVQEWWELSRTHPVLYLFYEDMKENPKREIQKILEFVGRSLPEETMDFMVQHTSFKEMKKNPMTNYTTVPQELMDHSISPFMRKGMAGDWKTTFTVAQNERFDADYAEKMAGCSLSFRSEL

[1] = compound: C/C(=N\NC(=O)C1=CC(=CC=C1)S(=O)(=O)N2CCOCC2)/C3=C(C=CC(=C3)Cl)O
Method in brief: as §1

[2] = compound: C1=CC(=C(C=C1Cl)C2=NC3=NC=CN=C3C(=N2)NC4=CC=NC=C4)F
Method in brief: as §1

[3] = compound: C1=CC(=CC=C1C2=NC3=C(N2)C=C(C=C3)C(=O)N)OC4=CC=C(C=C4)Cl
Method in brief: as §1

[4] = compound: C1=CC2=C(C=CC(=C2)/C=C\3/C(=O)NC(=NCC4=CC=CS4)S3)N=C1
Method in brief: as §1

[5] = compound: C1=CC2=NC=CN=C2C=C1/C=C/3\C(=O)NC(=O)S3
Method in brief: as §1

[6] = compound: C1=CC=C(C=C1)C2=NC(=C(N2)C3=CC=NC=C3)C4=CC(=C(C=C4)Cl)O
Method in brief: as §1

[7] = compound: C1=CC=C2C(=C1)C3=NNC4=CC=CC(=C43)C2=O
Method in brief: as §1

[8] = compound: C1CCN(C1)C(=O)NC2=CC=CC(=C2)NC3=NC=C(C(=N3)NCCC4=CN=CN4)Br
Method in brief: as §1

[9] = compound: C1CN(CCC1(CC2=CC=C(C=C2)Cl)N)C3=NC=NC4=C3C=CN4
Method in brief: as §1

IRAK-1-4 Inhibitor I = compound: C1COCCN1CCN2C3=CC=CC=C3N=C2NC(=O)C4=CC(=CC=C4)[N+](=O)[O-] [IRAK-1-4 Inhibitor I]
Method in brief: as §1

ibrutinib = compound: C=CC(=O)N1CCC[C@@H](n2nc(-c3ccc(Oc4ccccc4)cc3)c3c(N)ncnc32)C1 [ibrutinib]
Method in brief: as §1

[10] = compound: CC(=O)c1cnc2ccc(-c3cc(Cl)c(O)c(Cl)c3)nc2c1N[C@H]1CC[C@H](CN(C)C)CC1
Method in brief: as §1

ralimetinib = compound: CC(C)(C)Cn1c(N)nc2ccc(-c3[nH]c(C(C)(C)C)nc3-c3ccc(F)cc3)nc21 [ralimetinib]
Method in brief: as §1

[11] = compound: CC(C)(O)CC(=O)NCCn1ccc2ncnc(Nc3ccc(Oc4cccc(C(F)(F)F)c4)c(Cl)c3)c21
Method in brief: as §1

[12] = compound: CC(C)C1=C2N=C(C=C(N2N=C1)NCC3=CC=CC=C3)NCCCCCCN
Method in brief: as §1

[13] = compound: CC(C)C[C@@H](C=O)NC(=O)[C@H](CC(C)C)NC(=O)[C@H](CC(C)C)NC(=O)OCc1ccccc1
Method in brief: as §1

pinometostat = compound: CC(C)N(C[C@H]1O[C@@H](n2cnc3c(N)ncnc32)[C@H](O)[C@@H]1O)[C@H]1C[C@@H](CCc2nc3cc(C(C)(C)C)ccc3[nH]2)C1 [pinometostat]
Method in brief: as §1

[14] = compound: CC1=C(C(CC(=O)N1)C2=CC=C(C=C2)C(F)(F)F)C(=O)NC3=C(C=C4C(=C3)C=NN4)F
Method in brief: as §1

[15] = compound: CC1=C(C2=C(C=C1)C(=O)C3=CC=CC=C3N2CCCN)C
Method in brief: as §1

Measured: log2 fold change

STX8 (UniProt Q9UNK0)
inactive: erlotinib 0.003 | [1] -0.013 | [2] 0.012 | [3] 0.056 | [4] -0.014 | [5] 0.035 | [6] 0.001 | [7] -0.061 | [8] 0.009 | [9] -0.026 | IRAK-1-4 Inhibitor I -0.009 | ibrutinib 0 | [10] 0.001 | ralimetinib 0.118 | [11] 0.006 | [12] -0.082 | [13] 0.008 | pinometostat 0.035 | [14] -0.011 | [15] 0.042

SUPT4H1 (UniProt P63272)
inactive: erlotinib -0.01 | [1] 0.008 | [2] 0.093 | [3] 0.031 | [4] -0.085 | [5] -0.02 | [6] 0.018 | [7] 0.007 | [8] -0.025 | [9] 0.006 | IRAK-1-4 Inhibitor I 0.004 | ibrutinib 0.093 | [10] 0.016 | ralimetinib 0.128 | [11] -0.049 | [12] -0.107 | [13] 0.011 | pinometostat -0.1 | [14] -0.012 | [15] -0.124

SUMO3 isoform 2 (UniProt P55854)
inactive: erlotinib -0.026 | [1] -0.092 | [2] 0.043 | [3] 0.038 | [4] -0.095 | [5] 0.037 | [6] -0.104 | [7] -0.134 | [8] 0.091 | [9] 0.063 | IRAK-1-4 Inhibitor I 0.007 | ibrutinib 0.012 | [10] 0.023 | ralimetinib 0.009 | [11] 0.107 | [12] 0.135 | [13] 0.045 | pinometostat 0.007 | [14] 0.098 | [15] -0.165

TARSL2 (UniProt A2RTX5)
inactive: erlotinib 0.038 | [1] 0.009 | [2] -0.051 | [3] 0.019 | [4] 0.037 | [5] 0.027 | [6] 0.046 | [7] 0.017 | [8] 0.045 | [9] -0.065 | IRAK-1-4 Inhibitor I 0.051 | ibrutinib -0.009 | [10] -0.011 | ralimetinib -0.021 | [11] -0.083 | [12] -0.15 | [13] -0.032 | pinometostat 0.069 | [14] 0.025 | [15] 0.046

STXBP1 (UniProt P61764)
inactive: erlotinib 0.03 | [1] 0.153 | [2] 0.166 | [3] -0.046 | [4] 0.032 | [5] -0.059 | [6] 0.094 | [7] -0.001 | [8] -0.155 | [9] -0.039 | IRAK-1-4 Inhibitor I -0.098 | ibrutinib 0.127 | [10] -0.195 | ralimetinib 0.09 | [11] -0.151 | [12] -0.125 | [13] -0.063 | pinometostat 0.028 | [14] -0.03 | [15] 0.471

STX16 isoform 2 (UniProt O14662)
inactive: erlotinib -0.022 | [1] 0.028 | [2] -0.069 | [3] 0.056 | [4] -0.006 | [5] -0.053 | [6] -0.024 | [7] 0.006 | [8] -0.031 | [9] 0.028 | IRAK-1-4 Inhibitor I -0.013 | ibrutinib 0.042 | [10] -0.011 | ralimetinib -0.027 | [11] 0.171 | [12] -0.083 | [13] 0.312 | pinometostat -0.023 | [14] 0.019 | [15] 0.107

SURF6 (UniProt O75683)
inactive: erlotinib 0.09 | [1] -0.309 | [2] -0.561 | [3] -0.153 | [4] -0.017 | [5] 0.003 | [6] -0.138 | [7] -0.118 | [8] -0.044 | [9] -0.169 | IRAK-1-4 Inhibitor I -0.059 | ibrutinib 0.033 | [10] 0.137 | ralimetinib 0.236 | [11] 0.176 | [12] 0.27 | [13] 0 | pinometostat 0.15 | [14] -0.079 | [15] -0.562

SWAP70 (UniProt Q9UH65)
inactive: erlotinib 0.022 | [1] 0.083 | [2] 0.013 | [3] 0.011 | [4] 0.007 | [5] 0.066 | [6] 0 | [7] -0.024 | [8] -0.024 | [9] -0.007 | IRAK-1-4 Inhibitor I 0.006 | ibrutinib 0.033 | [10] 0.018 | ralimetinib 0.048 | [11] 0.035 | [12] -0.004 | [13] -0.03 | pinometostat -0.051 | [14] -0.019 | [15] -0.046

STX12 (UniProt Q86Y82)
inactive: erlotinib 0.059 | [1] 0.009 | [2] 0.005 | [3] -0.033 | [4] -0.005 | [5] 0.033 | [6] -0.018 | [7] -0.042 | [8] 0.024 | [9] 0.075 | IRAK-1-4 Inhibitor I 0.03 | ibrutinib 0.006 | [10] 0.014 | ralimetinib -0.018 | [11] 0.003 | [12] 0.01 | [13] 0.008 | pinometostat -0.073 | [14] 0.002 | [15] 0.105

SYNCRIP isoform 3 (UniProt O60506)
inactive: erlotinib -0.066 | [1] -0.167 | [2] -0.231 | [3] 0.035 | [4] -0.006 | [5] -0.019 | [6] -0.046 | [7] -0.004 | [8] 0.107 | [9] 0.02 | IRAK-1-4 Inhibitor I -0.109 | ibrutinib 0.106 | [10] -0.026 | ralimetinib 0.137 | [11] 0.134 | [12] 0.043 | [13] 0.026 | pinometostat 0.082 | [14] -0.026 | [15] -0.303

TAL1 (UniProt P17542)
inactive: erlotinib -0.004 | [1] 0.047 | [2] -0.024 | [3] -0.014 | [4] -0.053 | [5] 0.058 | [6] -0.089 | [7] 0.009 | [8] -0.006 | [9] -0.007 | IRAK-1-4 Inhibitor I 0.043 | ibrutinib 0.023 | [10] -0.029 | ralimetinib -0.059 | [11] -0.013 | [12] -0.002 | [13] 0.029 | pinometostat -0.032 | [14] 0.004 | [15] 0.058

SYNJ1 (UniProt O43426)
inactive: erlotinib 0.06 | [1] 0.079 | [2] -0.04 | [3] -0.022 | [4] 0.002 | [5] -0.008 | [6] 0.11 | [7] -0.09 | [8] 0.029 | [9] 0.025 | IRAK-1-4 Inhibitor I 0.009 | ibrutinib -0.01 | [10] -0.066 | ralimetinib 0.136 | [11] 0.069 | [12] 0.137 | [13] 0.002 | pinometostat 0.048 | [14] 0.019 | [15] 0.108

TACC3 (UniProt Q9Y6A5)
inactive: erlotinib -0.003 | [1] 0.023 | [2] 0.017 | [3] 0.003 | [4] 0.05 | [5] 0.044 | [6] -0.022 | [7] -0.03 | [8] 0.007 | [9] -0.012 | IRAK-1-4 Inhibitor I 0.015 | ibrutinib 0.01 | [10] 0.035 | ralimetinib -0.006 | [11] 0.015 | [12] 0.061 | [13] -0.004 | pinometostat -0.043 | [14] 0.025 | [15] 0.034

STOML2 (UniProt Q9UJZ1)
inactive: erlotinib 0.039 | [1] -0.045 | [2] 0.008 | [3] 0 | [4] -0.001 | [5] 0.014 | [6] 0.007 | [7] 0.053 | [8] -0.005 | [9] 0.055 | IRAK-1-4 Inhibitor I -0.016 | ibrutinib -0.011 | [10] -0.031 | ralimetinib 0.008 | [11] 0.007 | [12] 0.043 | [13] -0.035 | pinometostat -0.023 | [14] 0.008 | [15] 0.019

SULT1A3 isoform 3 (UniProt P0DMM9)
inactive: erlotinib 0.045 | [1] 0.039 | [2] -0.086 | [3] 0.282 | [4] 0.198 | [5] 0.115 | [6] 0.008 | [7] 0.296 | [8] -0.024 | [9] 0.03 | IRAK-1-4 Inhibitor I -0.028 | ibrutinib -0.006 | [10] -0.087 | ralimetinib -0.09 | [11] -0.094 | [12] -0.1 | [13] 0.02 | pinometostat 0.03 | [14] 0.074 | [15] -0.125

STRBP (UniProt Q96SI9)
inactive: erlotinib 0.035 | [1] -0.093 | [2] -0.198 | [3] -0.025 | [4] -0.039 | [5] 0.052 | [6] -0.005 | [7] -0.099 | [8] -0.025 | [9] -0.026 | IRAK-1-4 Inhibitor I -0.131 | ibrutinib 0.071 | [10] -0.042 | ralimetinib 0.041 | [11] 0.017 | [12] 0.148 | [13] 0.066 | pinometostat 0.086 | [14] -0.017 | [15] 0.066

From the supplement of paper PMC10849652
